The supplement of paper PMC4604168 (melanoma cell lines)
The list shows a part of the results. Many values rest on one well or one pass, so single values are uncertain.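 Imaging used 1,536-well plates; nuclei positive for cleaved PARP by antibody were divided by total DNA-stained nuclei to yield the apoptosis fraction. Doses for screening kept most cells viable, and cell lines differ markedly in resting and induced cleaved-PARP levels.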

Experiments:
Assay in all cases: cleaved PARP positive nuclei fraction relative to DMSO control; melanoma cells; higher = more apoptosis
Details in all cases: library dose: low library concentration; 72 h
MZ2-MEL = test system: MZ2-MEL
MeWo = test system: MeWo
RPMI7951 = test system: RPMI7951
RVH-421 = test system: RVH-421
SkMel28 = test system: SkMel28
SkMel2 = test system: SkMel2
SkMel30 = test system: SkMel30
UACC62 = test system: UACC62

Row | Compound | cleaved PARP positive nuclei fraction (MZ2-MEL) | cleaved PARP positive nuclei fraction (MeWo) | cleaved PARP positive nuclei fraction (RPMI7951) | cleaved PARP positive nuclei fraction (RVH-421) | cleaved PARP positive nuclei fraction (SkMel28) | cleaved PARP positive nuclei fraction (SkMel2) | cleaved PARP positive nuclei fraction (SkMel30) | cleaved PARP positive nuclei fraction (UACC62)
1 | NC(=O)c1ccc(N(C(N)=O)c2c(F)cccc2F)nc1-c1ccc(F)cc1F + CCN(CC)CCNC(=O)c1c(C)[nH]c(/C=C2\C(=O)Nc3ccc(F)cc32)c1C [sunitinib] (first compound 0.4 µM, partner dose 0.4 µM) | 83.2% | 23.7% | 77.8% | 187% | 38.9% | 32.7% | 91.3% | 89.3%
2 | CC1(C)CCC(c2ccc(Cl)cc2)=C(CN2CCN(c3ccc(C(=O)NS(=O)(=O)c4ccc(N[C@H](CCN5CCOCC5)CSc5ccccc5)c(S(=O)(=O)C(F)(F)F)c4)cc3)CC2)C1 + COCC[n+]1c2c(n(Cc3cnccn3)c1C)C(=O)c1ccccc1C2=O [YM155] (first compound 0.4 µM, partner dose 0.0004 µM) | 988% | 510% | 589% | 101% | 82.8% | 76.1% | 146% | 75.6%
3 | CCCCCCCCc1ccc(CCC(N)(CO)CO)cc1 [fingolimod] + C=CCNC1=C2C[C@@H](C)C[C@H](OC)[C@H](O)[C@@H](C)/C=C(\C)[C@H](OC(N)=O)[C@@H](OC)/C=C\C=C(/C)C(=O)NC(=CC1=O)C2=O [Tanespimycin] (first compound 2 µM, partner dose 0.002 µM) | 189% | 65% | 60.6% | 83.7% | 83.3% | 139% | 118% | 80.7%
4 | NC(=O)c1ccc(N(C(N)=O)c2c(F)cccc2F)nc1-c1ccc(F)cc1F + CC(C)C[C@H](NC(=O)[C@H](Cc1ccccc1)NC(=O)c1cnccn1)B(O)O [Bortezomib] (first compound 0.4 µM, partner dose 0.001 µM) | 118% | 91.1% | 171% | 58% | 75.6% | 26.4% | 51.8% | 170%
5 | NC1(c2ccc(-c3nc4ccn5c(=O)[nH]nc5c4cc3-c3ccccc3)cc2)CCC1 + O=C(O)c1ccc2c(c1)nc(Nc1cccc(Cl)c1)c1ccncc12 [CX4945] (first compound 0.4 µM, partner dose 0.4 µM) | 25.4% | 115% | 36.1% | 149% | 83.1% | 92.4% | 29.7% | 142%
6 | CCN(CC)CCNC(=O)c1c(C)[nH]c(/C=C2\C(=O)Nc3ccc(F)cc32)c1C [sunitinib] + CC(=O)c1c(C)c2cnc(Nc3ccc(N4CCNCC4)cn3)nc2n(C2CCCC2)c1=O [palbociclib] (first compound 0.4 µM, partner dose 0.04 µM) | 53.8% | 109% | 85.6% | 129% | 49.4% | 78.5% | 49.1% | 361%
7 | Cn1sc(=O)n(Cc2ccccc2)c1=O + CCCS(=O)(=O)Nc1ccc(F)c(C(=O)c2c[nH]c3ncc(Cl)cc23)c1F [PLX4720] (first compound 0.4 µM, partner dose 0.08 µM) | 20.3% | 195% | 46% | 84.3% | 74.9% | 135% | 146% | 113%
8 | COc1ccc(C2=N[C@@H](c3ccc(Cl)cc3)[C@@H](c3ccc(Cl)cc3)N2C(=O)N2CCNC(=O)C2)c(OC(C)C)c1 [Nutlin-3] + OCc1c[nH]c2ccccc12 [Indole-3-carbinol] (first compound 0.1 µM, partner dose 0.8 µM) | 80.5% | 106% | 268% | 131% | 273% | 95.6% | 115% | 200%
9 | CC(=O)O[C@@]12CO[C@@H]1C[C@H](O)[C@@]1(C)C(=O)[C@H](O)C3=C(C)[C@@H](OC(=O)[C@H](O)[C@@H](NC(=O)OC(C)(C)C)c4ccccc4)C[C@@](O)([C@@H](OC(=O)c4ccccc4)[C@H]21)C3(C)C [Docetaxel] + Clc1ccc(Nc2nnc(Cc3ccncc3)c3ccccc23)cc1 [vatalanib] (first compound 0.0001 µM, partner dose 2 µM) | 587% | 475% | 261% | 135% | 550% | 601% | 509% | 749%
10 | Cn1sc(=O)n(Cc2ccccc2)c1=O + COCC[n+]1c2c(n(Cc3cnccn3)c1C)C(=O)c1ccccc1C2=O [YM155] (first compound 0.4 µM, partner dose 0.0004 µM) | 108% | 96.7% | 117% | 65.8% | 106% | 75.1% | 47.7% | 122%
11 | C[C@@H](N)c1ccc(C(=O)Nc2ccnc3[nH]ccc23)cc1 + COCC[n+]1c2c(n(Cc3cnccn3)c1C)C(=O)c1ccccc1C2=O [YM155] (first compound 0.4 µM, partner dose 0.0004 µM) | 559% | 119% | 33.8% | 147% | 99% | 170% | 21.1% | 94.8%
12 | COc1ccc(C2=N[C@@H](c3ccc(Cl)cc3)[C@@H](c3ccc(Cl)cc3)N2C(=O)N2CCNC(=O)C2)c(OC(C)C)c1 [Nutlin-3] + Cc1cc(Nc2cc(N3CCN(C)CC3)nc(/C=C/c3ccccc3)n2)n[nH]1 [ENMD2076] (first compound 0.1 µM, partner dose 0.04 µM) | 71.1% | 82.9% | 105% | 114% | 83% | 77.4% | 112% | 87.8%
13 | CC(=O)O[C@@]12CO[C@@H]1C[C@H](O)[C@@]1(C)C(=O)[C@H](O)C3=C(C)[C@@H](OC(=O)[C@H](O)[C@@H](NC(=O)OC(C)(C)C)c4ccccc4)C[C@@](O)([C@@H](OC(=O)c4ccccc4)[C@H]21)C3(C)C [Docetaxel] + Nc1ccn([C@@H]2O[C@H](CO)[C@@H](O)C2(F)F)c(=O)n1 [gemcitabine] (first compound 0.0001 µM, partner dose 0.0004 µM) | 493% | 746% | 273% | 87.4% | 229% | 640% | 519% | 579%
14 | C[C@]1(O)C[C@@H](c2nc(-c3ccc4ccc(-c5ccccc5)nc4c3)c3c(N)nccn32)C1 + Nc1ccn([C@@H]2O[C@H](CO)[C@@H](O)C2(F)F)c(=O)n1 [gemcitabine] (first compound 0.4 µM, partner dose 0.0004 µM) | 193% | 134% | 43.7% | 270% | 320% | 42.3% | 68% | 119%
15 | C[C@@H](N)c1ccc(C(=O)Nc2ccnc3[nH]ccc23)cc1 + Cn1sc(=O)n(Cc2ccccc2)c1=O [TDZD-8] (first compound 0.4 µM, partner dose 0.4 µM) | 296% | 220% | 107% | 557% | 65.7% | 149% | 63.5% | 137%
16 | COc1ccc(C2=N[C@@H](c3ccc(Cl)cc3)[C@@H](c3ccc(Cl)cc3)N2C(=O)N2CCNC(=O)C2)c(OC(C)C)c1 [Nutlin-3] + CC(C)C[C@H](NC(=O)[C@H](Cc1ccccc1)NC(=O)c1cnccn1)B(O)O [Bortezomib] (first compound 0.1 µM, partner dose 0.001 µM) | 88.7% | 90.8% | 104% | 185% | 88.6% | 108% | 102% | 57.9%
17 | Cn1cnc2c(F)c(Nc3ccc(Br)cc3Cl)c(C(=O)NOCCO)cc21 [selumetinib] + C#Cc1cccc(Nc2ncnc3cc(OCCOC)c(OCCOC)cc23)c1 [erlotinib] (first compound 0.015 µM, partner dose 0.8 µM) | 250% | 132% | 97.1% | 158% | 185% | 373% | 143% | 352%
18 | Cn1sc(=O)n(Cc2ccccc2)c1=O + Cn1nnc2c(C(N)=O)ncn2c1=O [temozolomide] (first compound 0.4 µM, partner dose 2 µM) | 178% | 98.2% | 145% | 200% | 73.7% | 91.6% | 47.9% | 258%
19 | C[C@@H](N)c1ccc(C(=O)Nc2ccnc3[nH]ccc23)cc1 + Cn1c(=O)n(-c2ccc(C(C)(C)C#N)cc2)c2c3cc(-c4cnc5ccccc5c4)ccc3ncc21 [NVP-BEZ235] (first compound 0.4 µM, partner dose 0.004 µM) | 66.7% | 198% | 73.4% | 62.2% | 258% | 171% | 53.8% | 119%
20 | CCCCCCCCc1ccc(CCC(N)(CO)CO)cc1 [fingolimod] + CC(=O)O[C@@]12CO[C@@H]1C[C@H](O)[C@@]1(C)C(=O)[C@H](O)C3=C(C)[C@@H](OC(=O)[C@H](O)[C@@H](NC(=O)OC(C)(C)C)c4ccccc4)C[C@@](O)([C@@H](OC(=O)c4ccccc4)[C@H]21)C3(C)C [Docetaxel] (first compound 2 µM, partner dose 0.0001 µM) | 385% | 411% | 205% | 54.2% | 114% | 544% | 169% | 181%
21 | CS(=O)(=O)c1ccc(C(=O)Nc2ccc(Cl)c(-c3ccccn3)c2)c(Cl)c1 [vismodegib] + Nc1ccn([C@@H]2O[C@H](CO)[C@@H](O)C2(F)F)c(=O)n1 [gemcitabine] (first compound 1 µM, partner dose 0.0004 µM) | 53.3% | 119% | 68.8% | 20% | 136% | 84.8% | 91.5% | 64.5%
22 | CC1(C)CCC(c2ccc(Cl)cc2)=C(CN2CCN(c3ccc(C(=O)NS(=O)(=O)c4ccc(N[C@H](CCN5CCOCC5)CSc5ccccc5)c(S(=O)(=O)C(F)(F)F)c4)cc3)CC2)C1 + CC(=O)O[C@@]12CO[C@@H]1C[C@H](O)[C@@]1(C)C(=O)[C@H](O)C3=C(C)[C@@H](OC(=O)[C@H](O)[C@@H](NC(=O)OC(C)(C)C)c4ccccc4)C[C@@](O)([C@@H](OC(=O)c4ccccc4)[C@H]21)C3(C)C [Docetaxel] (first compound 0.4 µM, partner dose 0.0001 µM) | 1330% | 2670% | 295% | 722% | 571% | 640% | 2210% | 433%
